Data from the supplement of paper PMC6411743.
± gives the standard deviation of the averaged measurements. This is a selection; strong and weak results do not stand in their true shares. Most values lie at the level of the controls, where differences are scatter.

Sequences of proteins named here, by UniProt entry; tags and fusion partners are left off. A change or cut given only in a name is not applied to a line headed by its entry.
UniProt Q02086: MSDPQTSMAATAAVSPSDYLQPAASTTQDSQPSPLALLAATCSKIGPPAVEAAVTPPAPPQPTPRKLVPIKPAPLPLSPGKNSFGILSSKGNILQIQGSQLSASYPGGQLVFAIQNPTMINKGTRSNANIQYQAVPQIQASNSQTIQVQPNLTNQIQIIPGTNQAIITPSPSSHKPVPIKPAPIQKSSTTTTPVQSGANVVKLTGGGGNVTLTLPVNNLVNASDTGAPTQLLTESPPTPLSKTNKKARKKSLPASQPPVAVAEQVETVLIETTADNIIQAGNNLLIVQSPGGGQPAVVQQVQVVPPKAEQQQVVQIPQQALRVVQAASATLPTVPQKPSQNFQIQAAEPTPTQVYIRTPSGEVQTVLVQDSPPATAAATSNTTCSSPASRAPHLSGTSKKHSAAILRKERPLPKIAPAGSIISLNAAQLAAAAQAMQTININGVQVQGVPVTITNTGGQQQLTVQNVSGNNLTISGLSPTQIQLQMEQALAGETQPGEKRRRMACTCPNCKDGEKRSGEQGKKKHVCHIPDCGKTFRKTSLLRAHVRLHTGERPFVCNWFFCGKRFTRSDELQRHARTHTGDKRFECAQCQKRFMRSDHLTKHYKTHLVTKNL
UniProt Q13367: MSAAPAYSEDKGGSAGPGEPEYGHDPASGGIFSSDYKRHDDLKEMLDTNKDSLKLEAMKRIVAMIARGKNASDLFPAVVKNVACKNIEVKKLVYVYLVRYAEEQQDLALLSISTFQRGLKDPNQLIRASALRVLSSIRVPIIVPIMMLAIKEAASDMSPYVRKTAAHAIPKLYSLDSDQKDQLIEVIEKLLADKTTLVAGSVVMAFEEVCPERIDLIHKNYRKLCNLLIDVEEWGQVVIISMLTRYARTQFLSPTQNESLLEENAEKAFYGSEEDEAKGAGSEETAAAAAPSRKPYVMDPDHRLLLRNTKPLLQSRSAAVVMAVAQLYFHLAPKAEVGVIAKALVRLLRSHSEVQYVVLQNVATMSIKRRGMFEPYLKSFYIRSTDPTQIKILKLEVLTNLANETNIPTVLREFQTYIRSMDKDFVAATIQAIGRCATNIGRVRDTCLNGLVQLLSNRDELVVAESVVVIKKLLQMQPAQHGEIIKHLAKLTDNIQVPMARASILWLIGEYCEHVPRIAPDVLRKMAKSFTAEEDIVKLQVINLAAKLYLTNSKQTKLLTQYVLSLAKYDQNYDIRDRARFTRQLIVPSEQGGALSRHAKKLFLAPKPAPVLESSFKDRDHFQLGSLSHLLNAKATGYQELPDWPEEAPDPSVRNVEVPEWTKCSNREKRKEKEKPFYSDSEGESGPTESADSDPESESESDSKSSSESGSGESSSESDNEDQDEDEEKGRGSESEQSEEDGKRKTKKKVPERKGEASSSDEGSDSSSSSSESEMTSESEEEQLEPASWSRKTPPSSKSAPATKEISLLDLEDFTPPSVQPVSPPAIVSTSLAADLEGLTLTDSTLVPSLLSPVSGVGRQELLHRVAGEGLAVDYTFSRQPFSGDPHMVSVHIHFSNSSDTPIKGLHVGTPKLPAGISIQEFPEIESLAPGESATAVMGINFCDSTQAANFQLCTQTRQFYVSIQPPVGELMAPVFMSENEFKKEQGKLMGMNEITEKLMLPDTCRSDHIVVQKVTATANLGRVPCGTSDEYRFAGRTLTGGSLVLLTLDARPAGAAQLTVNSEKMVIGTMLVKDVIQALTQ
UniProt Q12882: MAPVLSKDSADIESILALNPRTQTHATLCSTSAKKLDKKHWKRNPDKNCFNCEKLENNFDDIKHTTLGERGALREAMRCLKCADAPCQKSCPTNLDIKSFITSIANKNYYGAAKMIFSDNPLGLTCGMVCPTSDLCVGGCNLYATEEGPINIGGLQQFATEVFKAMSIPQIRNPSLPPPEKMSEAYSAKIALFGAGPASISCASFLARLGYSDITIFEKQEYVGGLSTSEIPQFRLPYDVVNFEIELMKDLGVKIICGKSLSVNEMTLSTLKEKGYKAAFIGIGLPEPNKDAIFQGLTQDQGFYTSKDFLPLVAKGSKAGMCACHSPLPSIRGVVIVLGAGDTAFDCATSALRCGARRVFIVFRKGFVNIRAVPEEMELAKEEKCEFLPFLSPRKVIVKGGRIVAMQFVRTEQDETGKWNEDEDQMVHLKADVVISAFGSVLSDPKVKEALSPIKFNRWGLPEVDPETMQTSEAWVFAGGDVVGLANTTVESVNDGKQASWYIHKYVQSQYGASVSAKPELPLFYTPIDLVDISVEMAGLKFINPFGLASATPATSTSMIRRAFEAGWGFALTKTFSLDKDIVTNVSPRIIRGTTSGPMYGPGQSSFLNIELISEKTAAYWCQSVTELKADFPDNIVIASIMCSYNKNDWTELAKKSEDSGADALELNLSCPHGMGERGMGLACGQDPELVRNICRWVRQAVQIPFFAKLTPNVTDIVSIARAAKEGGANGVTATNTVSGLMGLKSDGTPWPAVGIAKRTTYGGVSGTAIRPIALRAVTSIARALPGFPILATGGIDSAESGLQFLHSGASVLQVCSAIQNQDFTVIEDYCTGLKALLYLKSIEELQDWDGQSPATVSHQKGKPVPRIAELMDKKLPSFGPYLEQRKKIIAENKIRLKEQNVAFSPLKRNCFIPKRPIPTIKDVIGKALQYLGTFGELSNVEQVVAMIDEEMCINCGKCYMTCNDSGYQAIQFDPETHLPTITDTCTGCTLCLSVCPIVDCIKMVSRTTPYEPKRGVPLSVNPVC
UniProt Q12792, whole entry: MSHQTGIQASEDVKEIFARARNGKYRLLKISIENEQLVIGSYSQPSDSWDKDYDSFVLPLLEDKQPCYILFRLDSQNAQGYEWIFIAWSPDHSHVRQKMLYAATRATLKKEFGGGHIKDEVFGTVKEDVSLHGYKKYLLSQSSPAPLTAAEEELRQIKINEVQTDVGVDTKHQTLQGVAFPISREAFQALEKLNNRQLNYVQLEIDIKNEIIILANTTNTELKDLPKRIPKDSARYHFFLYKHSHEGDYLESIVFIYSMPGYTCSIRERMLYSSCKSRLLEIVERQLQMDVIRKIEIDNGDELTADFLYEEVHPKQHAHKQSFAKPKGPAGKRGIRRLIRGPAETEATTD
UniProt Q08380: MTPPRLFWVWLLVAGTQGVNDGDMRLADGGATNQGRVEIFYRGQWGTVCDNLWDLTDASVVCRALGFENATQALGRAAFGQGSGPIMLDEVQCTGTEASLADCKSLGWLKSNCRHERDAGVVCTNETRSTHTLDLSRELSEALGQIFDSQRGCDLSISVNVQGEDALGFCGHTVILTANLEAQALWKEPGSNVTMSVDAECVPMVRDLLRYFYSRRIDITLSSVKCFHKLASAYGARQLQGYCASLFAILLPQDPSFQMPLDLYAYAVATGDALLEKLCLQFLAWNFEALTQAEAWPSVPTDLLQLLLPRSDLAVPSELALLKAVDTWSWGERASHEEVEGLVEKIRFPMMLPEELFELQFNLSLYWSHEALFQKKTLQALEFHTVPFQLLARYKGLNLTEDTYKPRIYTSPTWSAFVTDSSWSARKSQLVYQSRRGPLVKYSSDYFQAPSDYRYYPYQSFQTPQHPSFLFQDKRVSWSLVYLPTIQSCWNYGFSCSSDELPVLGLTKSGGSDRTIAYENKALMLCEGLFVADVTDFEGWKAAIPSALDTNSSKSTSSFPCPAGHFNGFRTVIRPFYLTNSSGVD
UniProt Q09028, whole entry: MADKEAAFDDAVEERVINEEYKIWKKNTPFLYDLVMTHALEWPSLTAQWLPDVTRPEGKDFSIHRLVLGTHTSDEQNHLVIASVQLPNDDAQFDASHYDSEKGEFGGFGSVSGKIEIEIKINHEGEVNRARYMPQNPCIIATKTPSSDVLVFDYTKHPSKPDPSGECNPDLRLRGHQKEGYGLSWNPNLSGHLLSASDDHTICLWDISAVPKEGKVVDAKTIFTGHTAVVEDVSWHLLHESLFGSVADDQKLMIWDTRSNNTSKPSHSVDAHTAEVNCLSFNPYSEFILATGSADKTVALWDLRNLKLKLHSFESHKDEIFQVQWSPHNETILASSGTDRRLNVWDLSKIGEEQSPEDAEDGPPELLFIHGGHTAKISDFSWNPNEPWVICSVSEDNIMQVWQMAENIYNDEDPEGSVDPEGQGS
UniProt Q13362, whole entry, looked up: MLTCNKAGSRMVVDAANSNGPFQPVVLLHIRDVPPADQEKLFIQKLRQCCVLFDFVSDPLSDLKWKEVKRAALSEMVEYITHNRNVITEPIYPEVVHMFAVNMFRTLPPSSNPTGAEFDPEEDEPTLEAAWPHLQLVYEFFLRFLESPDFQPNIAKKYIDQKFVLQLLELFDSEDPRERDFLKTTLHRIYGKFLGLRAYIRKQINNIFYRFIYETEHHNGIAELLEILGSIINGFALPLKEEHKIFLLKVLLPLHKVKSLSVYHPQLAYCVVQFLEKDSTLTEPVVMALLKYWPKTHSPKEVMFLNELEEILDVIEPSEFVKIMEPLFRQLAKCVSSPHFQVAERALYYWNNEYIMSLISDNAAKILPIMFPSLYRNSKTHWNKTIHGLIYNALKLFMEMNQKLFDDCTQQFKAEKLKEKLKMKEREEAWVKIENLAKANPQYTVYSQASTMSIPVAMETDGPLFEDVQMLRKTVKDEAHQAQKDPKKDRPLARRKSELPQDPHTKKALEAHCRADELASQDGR
UniProt Q01650: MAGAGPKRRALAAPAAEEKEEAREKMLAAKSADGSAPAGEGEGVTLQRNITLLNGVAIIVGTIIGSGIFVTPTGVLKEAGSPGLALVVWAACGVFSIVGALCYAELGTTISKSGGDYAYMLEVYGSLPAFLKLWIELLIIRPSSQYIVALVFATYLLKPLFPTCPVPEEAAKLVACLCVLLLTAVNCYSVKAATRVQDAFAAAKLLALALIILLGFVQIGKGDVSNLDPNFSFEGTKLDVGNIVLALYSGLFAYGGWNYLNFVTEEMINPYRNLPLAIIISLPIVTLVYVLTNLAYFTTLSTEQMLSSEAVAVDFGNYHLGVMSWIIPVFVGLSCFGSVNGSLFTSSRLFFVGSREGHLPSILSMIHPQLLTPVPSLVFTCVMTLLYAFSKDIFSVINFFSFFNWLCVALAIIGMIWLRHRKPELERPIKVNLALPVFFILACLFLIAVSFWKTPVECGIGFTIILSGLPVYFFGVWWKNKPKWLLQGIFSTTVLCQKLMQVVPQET
UniProt Q08J23, whole entry: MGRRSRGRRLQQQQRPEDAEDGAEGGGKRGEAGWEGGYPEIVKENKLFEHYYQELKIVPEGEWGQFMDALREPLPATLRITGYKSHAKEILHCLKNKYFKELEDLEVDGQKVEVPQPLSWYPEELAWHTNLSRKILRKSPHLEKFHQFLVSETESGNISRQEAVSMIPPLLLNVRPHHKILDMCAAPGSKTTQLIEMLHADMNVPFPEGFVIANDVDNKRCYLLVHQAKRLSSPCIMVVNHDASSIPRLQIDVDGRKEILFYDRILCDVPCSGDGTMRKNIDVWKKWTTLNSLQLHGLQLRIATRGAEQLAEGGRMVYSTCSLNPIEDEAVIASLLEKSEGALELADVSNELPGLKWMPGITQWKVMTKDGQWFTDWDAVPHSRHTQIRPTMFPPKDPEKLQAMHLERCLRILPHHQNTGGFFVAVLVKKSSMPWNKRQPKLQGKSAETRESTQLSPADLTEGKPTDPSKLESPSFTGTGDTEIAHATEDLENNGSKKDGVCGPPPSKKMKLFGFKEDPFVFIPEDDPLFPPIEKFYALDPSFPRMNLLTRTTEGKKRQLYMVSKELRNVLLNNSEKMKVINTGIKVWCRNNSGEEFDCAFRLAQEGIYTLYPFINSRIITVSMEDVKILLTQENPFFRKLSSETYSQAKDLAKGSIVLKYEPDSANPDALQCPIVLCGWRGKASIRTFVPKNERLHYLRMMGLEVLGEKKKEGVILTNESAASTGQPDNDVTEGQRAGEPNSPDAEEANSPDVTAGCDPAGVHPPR
UniProt Q13112, whole entry, looked up: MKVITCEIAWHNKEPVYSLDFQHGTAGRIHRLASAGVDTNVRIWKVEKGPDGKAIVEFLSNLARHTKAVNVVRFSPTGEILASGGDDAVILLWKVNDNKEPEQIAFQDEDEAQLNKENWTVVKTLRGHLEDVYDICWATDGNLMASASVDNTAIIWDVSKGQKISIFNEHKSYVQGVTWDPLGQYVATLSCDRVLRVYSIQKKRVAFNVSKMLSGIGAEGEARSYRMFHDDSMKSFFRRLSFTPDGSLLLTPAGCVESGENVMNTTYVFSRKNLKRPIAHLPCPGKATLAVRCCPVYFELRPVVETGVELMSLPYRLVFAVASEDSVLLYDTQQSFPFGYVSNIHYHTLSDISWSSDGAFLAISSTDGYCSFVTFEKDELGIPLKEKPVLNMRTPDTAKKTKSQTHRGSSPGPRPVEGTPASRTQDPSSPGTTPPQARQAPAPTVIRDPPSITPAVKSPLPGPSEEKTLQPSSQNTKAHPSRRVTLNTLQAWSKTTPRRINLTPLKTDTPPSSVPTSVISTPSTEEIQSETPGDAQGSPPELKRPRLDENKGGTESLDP

Compound: Nc1ncnc2c1ncn2[C@@H]1O[C@H](COP(=O)(O)OP(=O)(O)OP(=O)(O)O)[C@@H](O)[C@H]1O [adenosine triphosphate]
Experiment: NP40-soluble protein abundance relative to vehicle (solubility fold change) (ratio); higher = more soluble protein in presence of ATP
Outline: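 Eight concentrations, 0.1 to 10 mM, were tested on Jurkat crude lysate for 10 min at room temperature and then 3 min at 37 °C, in three independent experiments. The lysate was solubilised with 0.8% NP40 and benzonase, ultracentrifuged, and the supernatant TMT-labelled for LC-MS/MS. Each value is the fold change against the detergent-processed vehicle in its own replicate, from vsn-normalised intensities.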

Target	NP40-soluble protein abundance (concentration: 0.1mM)	NP40-soluble protein abundance (concentration: 0.5mM)
PDCL (UniProt Q13371)	1.02 ± 0.057	0.975 ± 0.047
UniProt Q02086 and related entries	0.984 ± 0.046	1 ± 0.061
UniProt Q13367 and related entries	1.09 ± 0.042	1 ± 0.099
RAB33A (UniProt Q14088)	1.12 ± 0.094	1.07 ± 0.079
DPYD (UniProt Q12882)	1.05 ± 0.046	1.03 ± 0.019
GALNT1 (UniProt Q10472)	1 ± 0.028	1.09 ± 0.023
TWF1 (UniProt Q12792)	0.989 ± 0.1	1.04 ± 0.037
UniProt Q14103-3|Q14103-4|D6RF44	0.987 ± 0.024	0.982 ± 0.025
PFKP (UniProt Q01813)	1.04 ± 0.06	1.04 ± 0.056
CPSF1 (UniProt Q10570)	1.03 ± 0.079	1.16 ± 0.071
FOXK2 (UniProt Q01167)	0.994 ± 0.041	1 ± 0.042
SF3A3 (UniProt Q12874)	1.05 ± 0.011	1.13 ± 0.059
UniProt Q13439-4|Q13439-5|Q13439	0.987 ± 0.022	0.998 ± 0.07
UniProt Q13557-12|D6R938 and related entries	1.08 ± 0.027	1.05 ± 0.093
IK (UniProt Q13123)	0.977 ± 0.035	1.05 ± 0.07
TRIM28 (UniProt Q13263)	1 ± 0.03	1.02 ± 0.033
UniProt Q13310 and related entries	1.02 ± 0.015	1.01 ± 0.081
LGALS3BP (UniProt Q08380)	0.96 ± 0.1	0.951 ± 0.083
MAD2L1 (UniProt Q13257)	1.05 ± 0.12	1.03 ± 0.052
UniProt Q09028-2|Q09028-3|Q09028	1.01 ± 0.042	1.08 ± 0.051

Target	NP40-soluble protein abundance (concentration: 0.1mM)	NP40-soluble protein abundance (concentration: 0.5mM)
NCBP1 (UniProt Q09161)	1.09 ± 0.062	1.13 ± 0.079
EP300 (UniProt Q09472)	1.02 ± 0.035	0.975 ± 0.012
CEBPZ (UniProt Q03701)	0.986 ± 0.046	0.983 ± 0.029
UniProt Q12797 and related entries	1.01 ± 0.1	1.04 ± 0.061
NOTCH2 (UniProt Q04721)	1.14 ± 0.12	0.917 ± 0.039
UniProt Q06481 and related entries	0.915 ± 0.17	0.96 ± 0.17
UniProt Q05519 and related entries	1.19 ± 0.08	1.53 ± 0.13
UniProt Q04656 and related entries	1.08 ± 0.14	0.944 ± 0.047
EEF1A2 (UniProt Q05639)	1.05 ± 0.027	0.992 ± 0.21
UniProt Q12769 and related entries	1.04 ± 0.065	1.06 ± 0.054
UNC119 (UniProt Q13432)	1.03 ± 0.07	1.01 ± 0.065
UniProt Q13094 and related entries	0.967 ± 0.031	0.97 ± 0.012
UniProt Q12979-2|A0A0G2JQ41|Q12979 and related entries	1.05 ± 0.071	1.03 ± 0.064
UniProt Q13362-2|Q13362-3|Q13362-4|Q13362 and related entries	1.02 ± 0.044	1.01 ± 0.062
UniProt Q13042 and related entries	1 ± 0.017	1.04 ± 0.034
ACY1 (UniProt Q03154)	1.05 ± 0.091	1.04 ± 0.075
DDX10 (UniProt Q13206)	0.938 ± 0.078	0.941 ± 0.069
RING1 (UniProt Q06587)	0.972 ± 0.04	0.998 ± 0.012
CENPE (UniProt Q02224)	0.942 ± 0.055	0.952 ± 0.071
UniProt Q13190 and related entries	1.02 ± 0.0016	1.02 ± 0.036

Target	NP40-soluble protein abundance (concentration: 0.1mM)	NP40-soluble protein abundance (concentration: 0.5mM)
FKBP4 (UniProt Q02790)	1.02 ± 0.05	1.03 ± 0.042
SCARB2 (UniProt Q14108)	0.909 ± 0.0099	0.914 ± 0.091
TMED1 (UniProt Q13445)	0.991 ± 0.04	1.06 ± 0.078
UniProt Q01850 and related entries	0.991 ± 0.078	0.922 ± 0.017
PWP1 (UniProt Q13610)	0.99 ± 0.021	0.9732 ± 0.0044
UniProt Q13564 and related entries	1.02 ± 0.054	1.04 ± 0.032
ADAM9 (UniProt Q13443)	0.968 ± 0.031	0.953 ± 0.084
SLC7A5 (UniProt Q01650)	1 ± 0.044	0.995 ± 0.095
UniProt Q13724 and related entries	1.06 ± 0.079	1.05 ± 0.079
UniProt Q06210 and related entries	1.03 ± 0.084	1.01 ± 0.028
NSUN2 (UniProt Q08J23)	1.03 ± 0.064	1.06 ± 0.041
UniProt Q06330 and related entries	1.02 ± 0.034	1 ± 0.075
RBL2 (UniProt Q08999)	1.03 ± 0.032	1.017 ± 0.0068
UniProt Q00839 and related entries	0.891 ± 0.17	1.04 ± 0.047
TARBP1 (UniProt Q13395)	1.02 ± 0.019	1.001 ± 0.0096
MCL1 (UniProt Q07820)	1.05 ± 0.14	0.958 ± 0.044
CHAF1B (UniProt Q13112)	1.01 ± 0.027	1.03 ± 0.05
UniProt Q13164	1.07 ± 0.033	1.02 ± 0.097

Reprinted at random: 4 records from the list
Target	NP40-soluble protein abundance (concentration: 0.1mM)	NP40-soluble protein abundance (concentration: 0.5mM)
TMED1 (UniProt Q13445)	0.991 ± 0.04	1.06 ± 0.078
ADAM9 (UniProt Q13443)	0.968 ± 0.031	0.953 ± 0.084
UniProt Q06330 and related entries	1.02 ± 0.034	1 ± 0.075
UniProt Q01850 and related entries	0.991 ± 0.078	0.922 ± 0.017
